# Data: patent US20220339270A1
# Protein sequences, listed by entry. Tags and fused reporters are not part of them. Lines headed by an entry give the natural chain unless they say otherwise; changes in a name come on top.
# UniProt P10636: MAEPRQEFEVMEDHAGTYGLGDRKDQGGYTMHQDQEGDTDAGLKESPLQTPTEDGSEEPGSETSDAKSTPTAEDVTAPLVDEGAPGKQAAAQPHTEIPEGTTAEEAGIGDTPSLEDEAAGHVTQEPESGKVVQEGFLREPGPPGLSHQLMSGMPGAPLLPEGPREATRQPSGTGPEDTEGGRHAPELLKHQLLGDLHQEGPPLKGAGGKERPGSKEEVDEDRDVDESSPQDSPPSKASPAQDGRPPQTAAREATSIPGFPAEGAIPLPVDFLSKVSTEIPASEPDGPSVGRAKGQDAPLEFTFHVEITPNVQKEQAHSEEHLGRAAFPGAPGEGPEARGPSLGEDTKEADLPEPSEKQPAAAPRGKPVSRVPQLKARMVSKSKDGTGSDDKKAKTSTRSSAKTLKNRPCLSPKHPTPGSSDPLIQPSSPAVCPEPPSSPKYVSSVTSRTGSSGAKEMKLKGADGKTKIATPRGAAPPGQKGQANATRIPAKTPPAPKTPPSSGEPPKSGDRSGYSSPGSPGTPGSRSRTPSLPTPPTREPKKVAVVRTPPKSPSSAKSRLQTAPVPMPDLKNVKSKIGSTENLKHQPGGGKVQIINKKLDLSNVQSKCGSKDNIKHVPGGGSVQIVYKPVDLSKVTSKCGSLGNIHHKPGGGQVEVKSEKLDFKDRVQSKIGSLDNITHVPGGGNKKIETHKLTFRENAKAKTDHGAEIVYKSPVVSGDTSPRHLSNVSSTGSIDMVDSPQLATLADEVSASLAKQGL
# No constants are given. Whether binding was seen depends on the method and setting. Some binding calls cover weakened binding; strength is not graded here. For some assays here: Sequences can lack the tags named with a protein.
# B1: full C10.2 antibody (antibody, V domains shown)
# VH: QVQLQQSDAELVKPGASVKISCKASGYTFTDRTIHWVKQRPEQGLEWIGYIYPGDGSTKYNENFKGKATLTADKSSSTAYMQLNSLTSEDSAVYFCARRGAMDYWGQGTSVTVSS
# VL: DVQMIQSPSSLSASLGDIVTMTCQASQGTSINLNWFQQKPGKAPKLLIYGASNLEDGVPSRFSGSRYGTDFTLTISSLEDEDMATYFCLQHTYLPFTFGSGTKLEIK
# B2: C10.2 Fab fragments (Fab, V domains shown)
# VH: B1 VH
# VL: B1 VL
# B3: IPN002 antibody expressed from viral genome construct IPN002LF2AH (TAU_ITR84) (antibody, V domains shown)
# VH: EVHLVESGGALVKPGGSLKLSCAASGFSFSKYGMSWVRQTPDKRLEWVATISSSGSRTYYPDSVKGQFTISRDNAKNTLYLQMSSLKSEDTAMYYCSISWDGAMDYWGQGTSVTVSS
# VL: DVLMTQTPLSLPVSLGDQASISCKSSQSIVHSNGNTYLEWYLQKPGQSPKLLVYKVSNRFSGVPDRFSGSGSGTDFTLKISRVEAEDLGTYYCFQGSLVPWAFGGGTKLEIK
# B4: IPN002 antibody expressed from viral genome construct IPN002HF.F2AL (TAU_ITR77) (antibody, V domains shown)
# VH: B3 VH
# VL: B3 VL
# B5: anti-tau antibody IPN002 (control antibody) (antibody, V domains shown)
# VH: B3 VH
# VL: B3 VL
# B6: IPN002 antibody expressed from CAG-IPN002-LT2AH (TAU_ITR10) (antibody, V domains shown)
# VH: B3 VH
# VL: B3 VL
# B7: IPN002 antibody expressed from CB6-IPN002-LF2AH (TAU_ITR11) (antibody, V domains shown)
# VH: B3 VH
# VL: B3 VL
# B8: IPN002 antibody expressed from CB6-IPN002-LT2AH (TAU_ITR87) (antibody, V domains shown)
# VH: B3 VH
# VL: B3 VL
# B9: IPN002 Fab expressed from TAU_ITR123 (CBA, hGbin, HF.T2AL) (Fab, V domains shown)
# VH: B3 VH
# VL: B3 VL
# B10: IPN002 Fab_ext expressed from TAU_ITR124 (CBA, hGbin, HF.T2AL) (Fab, V domains shown)
# VH: B3 VH
# VL: B3 VL
# B11: IPN002 Fab expressed from TAU_ITR127 (CAG, HF.T2AL) (Fab, V domains shown)
# VH: B3 VH
# VL: B3 VL
# B12: IPN002 Fab_ext expressed from TAU_ITR128 (CAG, HF.T2AL) (Fab, V domains shown)
# VH: B3 VH
# VL: B3 VL
# B13: IPN002 Fab_ext expressed from TAU_ITR129 (CBA, hGbin, LT2AH) (Fab, V domains shown)
# VH: B3 VH
# VL: B3 VL
# B14: IPN002 Fab_ext expressed from TAU_ITR130 (CAG, LT2AH) (Fab, V domains shown)
# VH: B3 VH
# VL: B3 VL
# B15: IPN002 F(ab')2_hIgG3_2hinge expressed from TAU_ITR121 (CBA, hGbin, HF.T2AL) (F(ab')2)
# VH: B3 VH
# VL: B3 VL
# B16: IPN002 F(ab')2_hIgG3_3hinge expressed from TAU_ITR122 (CBA, hGbin, HF.T2AL) (F(ab')2)
# VH: B3 VH
# VL: B3 VL
# B17: IPN002 scFv-HA expressed from TAU_ITR138 (CAG, HL, (G4S)2) (scFv)
# scFv: EVHLVESGGALVKPGGSLKLSCAASGFSFSKYGMSWVRQTPDKRLEWVATISSSGSRTYYPDSVKGQFTISRDNAKNTLYLQMSSLKSEDTAMYYCSISWDGAMDYWGQGTSVTVSSGGGGSGGGGSDVLMTQTPLSLPVSLGDQASISCKSSQSIVHSNGNTYLEWYLQKPGQSPKLLVYKVSNRFSGVPDRFSGSGSGTDFTLKISRVEAEDLGTYYCFQGSLVPWAFGGGTKLEIK
# Key:
# [1] = target: extracellular tau in the form of paired helical filaments (ePHF) (UniProt P10636); test: ELISA
# [2] = target: extracellular tau in the form of paired helical filaments (ePHF) (UniProt P10636); test: ePHF tau ELISA, Expi293 supernatant
# [3] = target: extracellular tau in the form of paired helical filaments (ePHF) (UniProt P10636); test: PHF-tau ELISA
# [4] = target: extracellular tau in the form of paired helical filaments (ePHF) (UniProt P10636); test: ePHF tau ELISA, control antibody
# [5] = target: phospho-tau (antigen of the Phospho-tau ELISA of Example 8) (UniProt P10636); test: Phospho-tau ELISA, ExpiCHO supernatant
# [6] = target: extracellular tau in the form of paired helical filaments (ePHF) (UniProt P10636); test: PHF-tau ELISA, 293 cell supernatant
# [7] = target: extracellular tau in the form of paired helical filaments (ePHF) (UniProt P10636); test: PHF Tau ELISA
# [8] = target: wild-type tau (441 amino acids; tau441; NP_005901.2) (human) (UniProt P10636); test: wild-type tau ELISA, 293 cell supernatant
# [9] = target: extracellular tau in the form of paired helical filaments (ePHF) (UniProt P10636); test: PHF tau ELISA, 293 cell supernatant
Binder,binding [6],binding [7],other results
B1,,,binding [1]: binds
B2,,,binding [1]: binds
B3,,,binding [2]: binds
B4,,,binding [2]: binds
B5,,,binding [3]: binds; binding [4]: binds
B6,,,binding [5]: binds
B7,,,binding [5]: binds
B8,,,binding [5]: binds
B9,binds,binds,
B10,binds,binds,
B11,binds,binds,
B12,binds,binds,
B13,binds,binds,
B14,binds,binds,
B15,binds,,binding [8]: binds
B16,binds,,
B17,,,binding [8]: binds; binding [9]: binds
